Experimental findings from PMC4932512 are described below.

By UniProt entry, the sequences of proteins in these tests, tags left out.
UniProt Q86Y07: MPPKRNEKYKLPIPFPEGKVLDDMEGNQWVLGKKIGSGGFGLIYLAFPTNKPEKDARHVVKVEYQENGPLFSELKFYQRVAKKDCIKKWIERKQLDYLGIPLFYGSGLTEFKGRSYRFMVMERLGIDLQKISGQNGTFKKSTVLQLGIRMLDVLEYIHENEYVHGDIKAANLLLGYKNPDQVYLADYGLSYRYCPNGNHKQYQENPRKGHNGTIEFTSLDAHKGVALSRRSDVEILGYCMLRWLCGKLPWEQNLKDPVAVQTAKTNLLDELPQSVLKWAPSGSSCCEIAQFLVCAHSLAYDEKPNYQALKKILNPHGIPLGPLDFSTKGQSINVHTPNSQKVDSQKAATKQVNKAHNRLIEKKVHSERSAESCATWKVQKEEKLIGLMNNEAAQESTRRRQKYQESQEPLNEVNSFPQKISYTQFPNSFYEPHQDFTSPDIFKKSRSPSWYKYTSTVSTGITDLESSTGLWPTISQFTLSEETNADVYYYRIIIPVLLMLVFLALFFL
UniProt Q00613: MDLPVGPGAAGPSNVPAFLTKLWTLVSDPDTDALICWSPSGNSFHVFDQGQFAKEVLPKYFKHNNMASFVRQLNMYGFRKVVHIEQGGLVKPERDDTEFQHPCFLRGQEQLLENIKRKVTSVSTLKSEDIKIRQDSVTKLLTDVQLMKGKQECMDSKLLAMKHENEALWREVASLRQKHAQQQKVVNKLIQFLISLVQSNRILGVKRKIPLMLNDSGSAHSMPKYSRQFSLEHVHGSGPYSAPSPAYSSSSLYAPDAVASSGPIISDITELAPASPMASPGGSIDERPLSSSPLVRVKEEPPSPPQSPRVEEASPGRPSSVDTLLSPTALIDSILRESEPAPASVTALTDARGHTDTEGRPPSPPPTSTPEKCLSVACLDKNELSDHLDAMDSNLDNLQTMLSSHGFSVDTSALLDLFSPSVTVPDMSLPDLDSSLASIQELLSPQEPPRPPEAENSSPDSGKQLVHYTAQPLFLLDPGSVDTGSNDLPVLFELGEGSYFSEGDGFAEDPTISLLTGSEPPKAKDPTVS
UniProt P49841: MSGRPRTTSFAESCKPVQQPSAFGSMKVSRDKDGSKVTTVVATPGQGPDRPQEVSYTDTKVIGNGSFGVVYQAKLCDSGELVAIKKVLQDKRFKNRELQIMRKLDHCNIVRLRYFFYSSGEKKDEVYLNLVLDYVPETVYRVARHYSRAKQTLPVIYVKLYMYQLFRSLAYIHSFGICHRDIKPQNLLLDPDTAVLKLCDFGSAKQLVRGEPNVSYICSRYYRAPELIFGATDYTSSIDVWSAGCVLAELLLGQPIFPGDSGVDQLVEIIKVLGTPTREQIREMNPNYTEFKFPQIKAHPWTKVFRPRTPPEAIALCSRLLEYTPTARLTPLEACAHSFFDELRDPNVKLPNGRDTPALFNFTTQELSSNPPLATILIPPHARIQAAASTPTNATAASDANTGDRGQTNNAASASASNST

Experiment [1] has as its target Flag-tagged human VRK2 (Vaccinia-related kinase 2), wild type (human) (UniProt Q86Y07). Nature of the experiment: co-IP; HEK293T cells transfected with Flag-Mock or Flag-VRK2 and HA-GSK3β; 24 h after transfection whole cell lysates immunoprecipitated with anti-FLAG antibody, immunoblot with anti-HA. A general note: A western blot detects proteins with antibodies after separation by electrophoresis.

The next experiment deals with HSF1 (UniProt Q00613). As to the kind of experiment: co-IP; co-immunoprecipitation of GSK3β and HSF1 with or without VRK2 overexpression (Supplementary Fig. S5a).

Results are given in words; binding and its absence hold for the method and conditions named. Binding seen in cells or lysates may run through a third protein. Some results given as binding are weak or reduced against the parent protein; the word gives no strength.

As for “HA-tagged GSK3β (glycogen synthase kinase 3β), wild type (from UniProt P49841 1-420) (enzyme)”, the binding result in experiment [1] is “binds”.
Regarding “GSK3β as used in the co-immunoprecipitation with HSF1 (from UniProt P49841 1-420) (enzyme)”, in the experiment with HSF1, the binding result is reported as “binds”.
